{"sequences": {"note": "By UniProt entry, the sequences of proteins in these tests, tags left out.", "UniProt Q8TDU9": "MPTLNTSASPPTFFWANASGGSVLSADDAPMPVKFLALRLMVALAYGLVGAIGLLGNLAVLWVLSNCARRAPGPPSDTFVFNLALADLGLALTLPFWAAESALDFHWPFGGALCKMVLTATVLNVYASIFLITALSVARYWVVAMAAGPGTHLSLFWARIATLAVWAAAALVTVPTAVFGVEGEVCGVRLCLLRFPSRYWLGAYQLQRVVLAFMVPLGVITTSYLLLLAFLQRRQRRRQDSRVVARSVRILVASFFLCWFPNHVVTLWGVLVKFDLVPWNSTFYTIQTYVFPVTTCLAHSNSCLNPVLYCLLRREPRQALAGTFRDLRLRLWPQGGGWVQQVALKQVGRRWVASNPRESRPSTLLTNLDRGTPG"}, "source": "patent US20260265334A1", "about": "“STAPLED PEPTIDES” (THE FLOREY INSTITUTE OF NEUROSCIENCE AND MENTAL HEALTH, priority 2023, published 2026)", "key": {"[1]": {"molecular_target": "LgBiT-RXFP4 (HEK-LgBiT-RXFP4 crude membrane fractions) (UniProt Q8TDU9)", "experiment": "worded; the binding numbers for it are the SmBiT-R3/I5 pKi of Table 5"}, "[2]": {"molecular_target": "T1, RXFP3 (relaxin family peptide receptor 3) on CHO-K1-RXFP3 cells (UniProt Q9NSD7)", "T1 sequence (looked up)": "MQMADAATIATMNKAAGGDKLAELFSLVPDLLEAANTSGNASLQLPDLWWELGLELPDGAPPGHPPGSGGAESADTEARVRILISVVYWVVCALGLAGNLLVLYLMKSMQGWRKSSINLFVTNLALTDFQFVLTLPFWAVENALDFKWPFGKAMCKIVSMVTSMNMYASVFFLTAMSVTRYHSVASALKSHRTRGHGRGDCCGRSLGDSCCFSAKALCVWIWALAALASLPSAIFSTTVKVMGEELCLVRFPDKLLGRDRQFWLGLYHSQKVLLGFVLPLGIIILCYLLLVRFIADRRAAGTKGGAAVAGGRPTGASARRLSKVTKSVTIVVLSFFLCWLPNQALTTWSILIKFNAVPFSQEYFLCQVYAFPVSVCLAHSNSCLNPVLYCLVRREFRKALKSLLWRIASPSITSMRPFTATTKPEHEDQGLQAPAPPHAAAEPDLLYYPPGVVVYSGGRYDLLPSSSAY", "experiment": "competition with Eu-H3B1-22R on CHO-K1-RXFP3 cells"}}, "note": "Results are given in words; binding and its absence hold for the method and conditions named. Some entries that bind do so weakly or less than the wild type."}
{"binder": "INSL5-A13: B7-24_G20/21 (two-chain G20/21 analogue) (ligand, GlyGly at positions B20 and B21; also called Formula III) chain 1: CTDGASMKDLSALC chain 2: CGLEYIRTVIYICGGSRW", "values": [{"measurement": "binding", "setting": "[1]", "result": "binds"}]}
{"binder": "SGREFIRAVIFTSR (14 residues)", "note": "[H3B10-22R13/17EA (Formula XII, truncated form of H3B1-22R)]", "values": [{"measurement": "binding", "setting": "[2]", "result": "binds"}]}
